These are yes or no findings as the source states them, for the method shown. Some binding calls cover weakened binding; strength is not graded here.

The target of test [1] is T1, Rad21 (fission yeast (S. pombe)) (UniProt P30776).
T1 sequence: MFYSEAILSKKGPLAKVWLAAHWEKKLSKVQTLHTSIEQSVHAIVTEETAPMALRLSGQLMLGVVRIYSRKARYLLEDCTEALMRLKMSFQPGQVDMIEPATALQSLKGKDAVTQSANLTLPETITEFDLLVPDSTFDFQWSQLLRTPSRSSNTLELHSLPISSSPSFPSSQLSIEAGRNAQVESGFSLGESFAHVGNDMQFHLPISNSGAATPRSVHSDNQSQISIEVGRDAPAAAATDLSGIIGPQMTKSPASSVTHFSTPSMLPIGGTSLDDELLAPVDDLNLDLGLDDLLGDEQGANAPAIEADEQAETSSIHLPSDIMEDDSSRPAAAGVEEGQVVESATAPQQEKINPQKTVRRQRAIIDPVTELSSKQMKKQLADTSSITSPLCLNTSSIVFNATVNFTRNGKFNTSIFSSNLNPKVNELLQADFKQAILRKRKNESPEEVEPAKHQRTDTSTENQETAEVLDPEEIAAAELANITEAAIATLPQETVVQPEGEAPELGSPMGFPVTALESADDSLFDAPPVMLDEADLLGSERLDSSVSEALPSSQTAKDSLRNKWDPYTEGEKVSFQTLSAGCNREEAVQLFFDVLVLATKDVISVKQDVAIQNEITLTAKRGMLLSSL
Put plainly: cross-linking; SDA (NHS-diazirine) UV crosslinking with mass spectrometry (CLMS), gripping state: 200 nM cohesin, 200 nM Mis4-Ssl3, 200 nM 125 bp dsDNA, 0.5 mM ADP and 0.5 mM BeSO4 + 10 mM NaF, 32°C 20 min; both purified.

In test [2] the target is T2, Psm1 (fission yeast (S. pombe)) (UniProt O94383).
T2 sequence: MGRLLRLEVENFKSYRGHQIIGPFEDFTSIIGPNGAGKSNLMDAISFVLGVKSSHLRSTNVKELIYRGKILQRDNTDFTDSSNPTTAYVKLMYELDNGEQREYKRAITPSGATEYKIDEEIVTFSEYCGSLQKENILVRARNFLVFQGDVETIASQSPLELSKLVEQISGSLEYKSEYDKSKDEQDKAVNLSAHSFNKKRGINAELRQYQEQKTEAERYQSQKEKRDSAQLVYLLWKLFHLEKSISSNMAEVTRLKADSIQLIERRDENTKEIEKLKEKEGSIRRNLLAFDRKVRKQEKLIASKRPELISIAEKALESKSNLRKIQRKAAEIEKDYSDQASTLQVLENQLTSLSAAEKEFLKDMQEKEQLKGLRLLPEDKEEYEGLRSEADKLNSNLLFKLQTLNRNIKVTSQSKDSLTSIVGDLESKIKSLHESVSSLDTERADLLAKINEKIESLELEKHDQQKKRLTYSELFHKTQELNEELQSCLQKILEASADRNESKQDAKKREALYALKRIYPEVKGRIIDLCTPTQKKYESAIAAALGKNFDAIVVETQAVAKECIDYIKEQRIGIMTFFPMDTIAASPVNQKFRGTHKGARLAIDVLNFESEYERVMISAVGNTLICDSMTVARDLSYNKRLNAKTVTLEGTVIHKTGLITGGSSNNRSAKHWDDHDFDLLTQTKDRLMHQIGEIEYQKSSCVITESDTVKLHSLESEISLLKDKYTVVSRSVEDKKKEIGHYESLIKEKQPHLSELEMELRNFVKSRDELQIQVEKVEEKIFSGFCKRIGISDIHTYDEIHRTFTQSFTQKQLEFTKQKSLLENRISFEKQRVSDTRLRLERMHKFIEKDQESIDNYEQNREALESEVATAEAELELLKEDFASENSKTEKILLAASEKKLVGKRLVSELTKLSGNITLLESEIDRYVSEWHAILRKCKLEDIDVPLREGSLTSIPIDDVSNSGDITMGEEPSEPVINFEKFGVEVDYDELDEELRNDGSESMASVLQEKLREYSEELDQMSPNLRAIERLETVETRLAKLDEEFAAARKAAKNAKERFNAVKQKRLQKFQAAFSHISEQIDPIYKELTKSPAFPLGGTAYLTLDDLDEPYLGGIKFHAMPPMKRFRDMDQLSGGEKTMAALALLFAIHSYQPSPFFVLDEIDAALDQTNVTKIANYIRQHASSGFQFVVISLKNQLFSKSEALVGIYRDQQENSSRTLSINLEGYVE
In words: cryo-EM structure; gripping state: cohesin tetramer, Mis4-Ssl3 and 125-bp linear dsDNA with ADP and BeSO4 + NaF (ADP·BeF3-), peak fractions of a sucrose gradient; 3.9 Å map of the cohesin core; both purified.

B1: Psc3 (natural protein, fission yeast (S. pombe), UniProt O13816 1-962, looked up)
chain: MSESVTTGSDDDGGDRESSPVMLSQSFDPMSSSSNSSSEENSDDDYEKTISSKKRHPRPNSKGVNVKRSRRNAIVEEDPQEEIFNNLFAFLLDQKVDTMDIAVSWFADYAKDNQSALANLINFILKCCGCNRAINVFDVQDQDSASATLSQIQLSVERTSTRDYPLNSKNLKFRNFRKRLTGLLSNFVSQLSIRNYLYNSTVFEDIMSWVVAMSSSTMRPIRHTATVFCLNIMTFLCEKSKELLNEHAIATKQLEKEEKRSRVNRNRINELNNSLGEIVKQQDTLTTYLNDYFDSVFVHRYRDVEPKIRVDCLQELGVWINTVPSIFFSGSYLRYLGWMLSDINTTVRLTVVKVLRKFFETDSFIGGLRHFSSRFKERILEMSCVDADIGVRVASIRLCNAMRTCGFLENSEILKVLKLILDINPRVQREAVLFLCKVVDESVNEKIDLWGEEDYILKAFSQTSLTTFSVHWIKFSQMCKLLEEVRLSYQSSFDYDTLLRIFQKNGNFITPITQALLNACEIDSIYQSWEDISNFVLFDNYTSTLKDPIDSILSFCKLNDFQESILLQLLSASIQTVCNNNFITPKTVHNKQAAETTNDQNKDKDLLYLNLLPYINSITERNSASPTLLHDSLRLLFSMDLTEMTDPQLSRHFELLINNLKKFFLTNNDLQIIQGCTILFLRLDSIPALKEDLKLLVTDICDQTVTEFLKNFGSFNIQDAVITKDEFVIFEACLTRIEGCTSLKDFSDYPEFDIIYERLVSLLSRVPNSYEDTLKFSAINTLQSLLFWFFLRKDNPADEEKKKDDETKVFNCLINIMNNDSSKILQLQAARTFLETVIMKEGVKASHYNDDNRVSEEHNFLKPQFLDALLKILEGWLYTYAKVGQFPFKRLTQASSPHTQISLDKNPLNRRLLEHVCCDLTSKLLIVVSLSNTITPEFSQQFCELRGHYGPKLSAIVDEFLN
notes: Psc3 (Scc3/STAG1/2), HEAT repeat subunit of fission yeast cohesin; Subunit of the wild-type tetramer; constructs from Murayama and Uhlmann, 2014; also called Psc3^Scc3/STAG1/2; Scc3; source: budding yeast (W303 background), galactose-induced, purified as part of the cohesin tetramer
In the case of B1, the binding result in test [1] is recorded as “binds”.

B2: Rad21 (protein, UniProt P30776 1-628)
chain: MFYSEAILSKKGPLAKVWLAAHWEKKLSKVQTLHTSIEQSVHAIVTEETAPMALRLSGQLMLGVVRIYSRKARYLLEDCTEALMRLKMSFQPGQVDMIEPATALQSLKGKDAVTQSANLTLPETITEFDLLVPDSTFDFQWSQLLRTPSRSSNTLELHSLPISSSPSFPSSQLSIEAGRNAQVESGFSLGESFAHVGNDMQFHLPISNSGAATPRSVHSDNQSQISIEVGRDAPAAAATDLSGIIGPQMTKSPASSVTHFSTPSMLPIGGTSLDDELLAPVDDLNLDLGLDDLLGDEQGANAPAIEADEQAETSSIHLPSDIMEDDSSRPAAAGVEEGQVVESATAPQQEKINPQKTVRRQRAIIDPVTELSSKQMKKQLADTSSITSPLCLNTSSIVFNATVNFTRNGKFNTSIFSSNLNPKVNELLQADFKQAILRKRKNESPEEVEPAKHQRTDTSTENQETAEVLDPEEIAAAELANITEAAIATLPQETVVQPEGEAPELGSPMGFPVTALESADDSLFDAPPVMLDEADLLGSERLDSSVSEALPSSQTAKDSLRNKWDPYTEGEKVSFQTLSAGCNREEAVQLFFDVLVLATKDVISVKQDVAIQNEITLTAKRGMLLSSL
Take B2: in test [2], the binding result is listed as “binds”.

The values are drawn from article PMC7507959, “A Structure-Based Mechanism for DNA Entry into the Cohesin Ring” (Molecular Cell, 2020).
